In the supplement of paper PMC10398353:
Where “and” joins values, the source holds several entries; their conditions need not be identical. Equal entries are not always repeated. Structures can show the parent of a compound that is named as a salt. ± gives the standard deviation of the averaged measurements. The list shows a part of the results. This is a noisy data set.

Test system: Salmonella enterica serovar Typhimurium ST313 D23580
Experiment: normalized bacterial growth (OD600 20 h minus 0 h, interquartile-mean normalized) (fraction of plate interquartile mean); higher = more bacterial growth (less inhibition)
Settings: LPM (pH 5.8, low phosphate, low Mg2+), concentration: 10 µM, temperature: 37 °C

SMILES | normalized bacterial growth
O=C1CCC[C@@H]2[C@H]3CCCN4CCC[C@@H](CN12)[C@@H]34 | 0.993
CC(=O)OCC1=C(C(=O)O)N2C(=O)[C@@H](NC(=O)CCC[C@@H](N)C(=O)O)[C@H]2SC1 | 0.807
COc1c2c(cc3c1OCO3)CC[N+](C)=C2 | 1.21
Cc1ccc(S(=O)(=O)N[C@@H](CCCCN)C(=O)CCl)cc1 [Na-p-Tosyl-L-lysine chloromethyl ketone hydrochloride] | 1.01
CCCN1CCC[C@@H](c2cccc(O)c2)C1 [S(-)-3PPP hydrochloride] | 1.02
CC(C)(C)[C@]1(O)CC2OC(=O)CC23C(=O)OC2OC(=O)[C@H](O)C231 (stereo partly drawn) | 1.22
C=C1[C@@H](C)[C@H]2[C@H](Cc3ccccc3)NC(=O)[C@]23OC(=O)/C=C/[C@H](O)CCC[C@@H](C)C/C=C/[C@H]3[C@@H]1O | 1.05
ClC1=C(Cl)C2(Cl)C3C4C=CC(C4)C3C1(Cl)C2(Cl)Cl (stereo not drawn) | 1.14
NC(=O)C[S+]([O-])C(c1ccccc1)c1ccccc1 (stereo not drawn) | 0.64
COc1cc2c(c(OC)c1OC)-c1ccc(O)c(=O)cc1[C@@H](N)CC2 [Trimethylcolchicinic acid] | 0.938
CC[C@@H](C(=O)O)[C@@H]1O[C@@H]([C@@H](C)[C@H](O)[C@H](C)C(=O)[C@H](CC)[C@H]2O[C@]3(C=C[C@@H](O)[C@]4(CC[C@@](C)([C@H]5CC[C@](O)(CC)[C@H](C)O5)O4)O3)[C@H](C)C[C@@H]2C)[C@@H](C)C[C@@H]1C | 0.603
COC(=O)COc1cc(Cl)c(Cl)cc1Cl | 1.28
CC[C@@H]1/C=C/C=C/C[C@H](C)[C@H](O)[C@](C)(O)C(=O)[C@H](C)[C@@H](O)[C@H](C)C(=O)[C@H](C)[C@@H](O)[C@H](C)/C=C/C(=O)O[C@H]2[C@@H](C)[C@@H](CC1)O[C@@]1(CC[C@@H](C)[C@@H](C[C@H](C)O)O1)[C@@H]2C | 1.1
Cc1c(N)nc([C@H](CC(N)=O)NC[C@H](N)C(N)=O)nc1C(=O)N[C@H](C(=O)N[C@H](C)[C@@H](O)[C@H](C)C(=O)N[C@H](C(=O)NCCc1nc(-c2nc(C(=O)NCCC[S+](C)C)cs2)cs1)[C@@H](C)O)[C@@H](OC1OC(CO)C(O)C(O)C1OC1OC(CO)C(O)C(OC(N)=O)C1O)c1cnc[nH]1 (stereo partly drawn) | 1.37
CC1=C[C@]23C(=O)[C@@H](C=C(COC(=O)c4ccccc4)[C@@H](O)[C@]2(O)[C@H]1OC(=O)c1ccccc1)[C@H]1[C@@H](C[C@H]3C)C1(C)C | 1.04
C[C@@H](CO)NC(=O)[C@@H]1C=C2c3cccc4[nH]cc(c34)C[C@H]2N(C)C1 | 1.11
CNCC(O)c1ccc(O)c(OC)c1 (stereo not drawn) [Metanephrine hydrochloride DL] | 1.24
Clc1ccc(C(OCCN2CCCCC2)c2ccccc2)cc1 (stereo not drawn) [Cloperastine hydrochloride] | 0.882
CN1CCN(C(=O)OC2c3nccnc3C(=O)N2c2ccc(Cl)cn2)CC1 (stereo not drawn) | 1.11
CC(Cc1ccccc1)NCCC(c1ccccc1)c1ccccc1 (stereo not drawn) [Prenylamine lactate] | 0.767
CC(=O)NC1CCSC1=O (racemic) [N-Acetyl-DL-homocysteine Thiolactone] | 1.13
C[C@]12CC[C@H](O)C[C@H]1CC[C@@H]1[C@@H]2C[C@@H](O)[C@]2(C)[C@@H](C3=CC(=O)OC3)CC[C@]12O | 0.901
C[C@]12CC[C@H](O)C[C@H]1CC[C@@H]1[C@@H]2C[C@@H](O)[C@]2(C)[C@@H](C3=CC(=O)OC3)CC[C@]12O [Digoxigenin] | 1.17
NCCc1c[nH]c2ccccc12 [Tryptamine hydrochloride] | 0.643
NCCc1c[nH]c2ccccc12 | 1.02

SMILES | normalized bacterial growth
Clc1ccc(N2C[C@H]3CC[C@@H](C2)N3)nn1 | 1.23
CC(=O)O[C@H]1[C@H]2O[C@]23[C@@H]2CC[C@@H]4C[C@@H](O)CC[C@]4(C)[C@H]2CC[C@]3(C)[C@H]1c1ccc(=O)oc1 | 0.735
C=CC[C@]1(O)CC[C@H]2[C@@H]3CCC4=CC(=O)CCC4=C3C=C[C@@]21C | 1.01
CN1C(=O)[C@]23CC4=CC=C[C@H](O)[C@H]4N2C(=O)[C@@]1(CO)SS3 | 0.0766
CNC(=O)ON=C(C)SC | 0.94
COc1cc(OC)c2c(c1)O[C@H](c1ccc(OC)c(OC)c1)[C@@H](O)C2 | 0.764
COc1cc2c3cc1Oc1cc(ccc1O)C[C@@H]1c4c(cc(OC)c(O)c4Oc4cccc(c4)C[C@@H]3N(C)CC2)CC[N+]1(C)C [Tubocurarine chloride pentahydrate (+)] | 0.903
OC[C@@H]1CCCN2CCCC[C@H]12 | 1.09
C1CCc2nnnn2CC1 [Pentylenetetrazole] | 0.874
COc1cc2c(cc1O)[C@@H]1Cc3ccc(OC)c(O)c3CN1CC2 | 0.872
Cn1cnc(CCN)c1 [1-Methylhistamine dihydrochloride] | 0.968
C=C[C@H]1CN2CC[C@H]1C[C@@H]2[C@@H](O)c1ccnc2ccccc12 [Cinchonine] | 1.26
C=C[C@H]1CN2CC[C@H]1C[C@@H]2[C@@H](O)c1ccnc2ccccc12 | 0.685
C=C1[C@@H]2CC[C@H]3[C@]4(C)C[C@H](O[C@@H]5O[C@H](CO)[C@@H](OS(=O)(=O)O)[C@H](OS(=O)(=O)O)[C@H]5OC(=O)CC(C)C)C[C@@H](C(=O)O)[C@H]4CC[C@]3(C2)[C@@H]1O [Atractyloside potassium salt] | 1.05
CC(Cc1ccc(O)cc1)NCC(O)c1cc(O)cc(O)c1 (stereo not drawn) [Fenoterol hydrobromide] | 1.13
CN(N=O)c1ccc(O)c(O)c1 ["Me-3,4-dephostatin"] | 0.782
CSc1nc(NC(C)C)nc(NC(C)C)n1 | 1.17
CC1=CC(=O)C2=C(C)C[C@H](O)[C@@H]3[C@H](OC(=O)[C@H]3C)[C@H]12 [Austricine hydrate] | 1.1
C[C@]12CC[C@@H](O)C[C@@H]1CC[C@@H]1[C@@H]2CC[C@]2(C)C(=O)CC[C@@H]12 | 1.12
C[C@]12CC[C@@H](O)C[C@@H]1CC[C@@H]1[C@@H]2CC[C@]2(C)C(=O)CC[C@@H]12 [Androsterone] | 0.98
CCCN1CCC[C@@H]2Cc3nc(N)ncc3C[C@H]21 [Quinelorane dihydrochloride] | 1.04
COc1ccc2c(c1)[C@]13CCCC[C@@H]1[C@H](C2)N(C)CC3 | 1.07
COc1ccc2c(c1)[C@]13CCCC[C@@H]1[C@H](C2)N(C)CC3 [Dextromethorphan hydrobromide monohydrate] | 1.06 ± 0.045
C[C@H]1O[C@@H](O[C@H]2[C@@H](O)C[C@H](O[C@H]3[C@@H](O)C[C@H](O[C@H]4CC[C@@]5(C)[C@H](CC[C@@H]6[C@@H]5CC[C@]5(C)[C@@H](C7=CC(=O)OC7)[C@@H](O)C[C@]65O)C4)O[C@@H]3C)O[C@@H]2C)C[C@H](O)[C@@H]1O | 0.712
C=C[C@H]1CN2CC[C@H]1C[C@H]2[C@H](O)c1ccnc2ccccc12 | 0.96 and 1.14

Three records picked at random from those above, as already listed:
SMILES | normalized bacterial growth
Cn1cnc(CCN)c1 [1-Methylhistamine dihydrochloride] | 0.968
COc1cc2c3cc1Oc1cc(ccc1O)C[C@@H]1c4c(cc(OC)c(O)c4Oc4cccc(c4)C[C@@H]3N(C)CC2)CC[N+]1(C)C [Tubocurarine chloride pentahydrate (+)] | 0.903
C=C1[C@@H]2CC[C@H]3[C@]4(C)C[C@H](O[C@@H]5O[C@H](CO)[C@@H](OS(=O)(=O)O)[C@H](OS(=O)(=O)O)[C@H]5OC(=O)CC(C)C)C[C@@H](C(=O)O)[C@H]4CC[C@]3(C2)[C@@H]1O [Atractyloside potassium salt] | 1.05

(continued)

SMILES | normalized bacterial growth
CC1=NCCc2c1[nH]c1cc(O)ccc21 [Harmalol hydrochloride dihydrate] | 0.977
CC1=NCCc2c1[nH]c1cc(O)ccc21 | 0.816 and 1.1
CNCCc1ccc(O)c(O)c1 [N-Methyldopamine hydrochloride] | 1.16
Clc1cnc(Oc2ccc(Oc3ncc(Cl)cc3Cl)cc2)c(Cl)c1 | 0.963
COC[C@H]1OC(=O)c2coc3c2[C@@]1(C)C1=C(C3=O)[C@@H]2CCC(=O)[C@@]2(C)C[C@H]1OC(C)=O | 0.739
CC1(C)C2(Cl)C(Cl)C(Cl)C(Cl)(C(Cl)Cl)C1(Cl)C2Cl (stereo not drawn) | 1
N[C@@H](Cn1oc(=O)[nH]c1=O)C(=O)O | 0.787
CC(Oc1ccc(Cl)cc1Cl)C(=O)O (stereo not drawn) | 0.832
NC(N)=NOCC[C@H](N)C(=O)O [L-Canavanine sulfate] | 1.15
NC(N)=NOCC[C@H](N)C(=O)O [L-Canavanine] | 1.01
NC(N)=NOCC[C@H](N)C(=O)O ["Canavanine sulfate monohydrate (L,+)"] | 0.968
CN1[C@@H]2CCC[C@H]1CC(=O)C2 | 0.967
CN1[C@@H]2CCC[C@H]1CC(=O)C2 [Pseudopelletierine hydrochloride] | 1.07
S=C(NC1CCCCC1)N1CCC(c2cnc[nH]2)CC1 [Thioperamide maleate] | 1.027 ± 0.0069
COC(=O)COc1ccc(Cl)cc1Cl | 1.08
C[C@]12CC[C@H]3[C@@H](CC[C@]4(O)C[C@@H](O)CC[C@]34C=O)[C@@]1(O)CC[C@@H]2C1=CC(=O)OC1 | 0.721
C[C@]12CC[C@H]3[C@@H](CC[C@]4(O)C[C@@H](O)CC[C@]34C=O)[C@@]1(O)CC[C@@H]2C1=CC(=O)OC1 [Strophanthidin] | 0.824
CCN(CC)C(=O)NC1CC2c3cccc4[nH]cc(c34)CC2N(C)C1 (stereo not drawn) [R(+)-Terguride] | 0.65
N#C/C(=C\c1cccc(O)c1)C(=O)O [alpha-CYANO-3-HYDROXYCINNAMIC ACID] | 1.1
O=C([O-])c1ccccc1-c1c2cc(Br)c(=O)cc-2oc2[c]([Hg+])c([O-])c(Br)cc12.[Na+].[Na+].[OH-] [Merbromin] | 0.0162
O=C([O-])c1ccccc1-c1c2cc(Br)c(=O)cc-2oc2[c]([Hg+])c([O-])c(Br)cc12.[Na+].[Na+].[OH-] | 0.0635
CC(=O)O[C@@H]1C[C@@]2(C)[C@H](c3ccoc3)C[C@H]3O[C@]32[C@]2(C)C(=O)C(O)=C3C(C)(C)C(=O)C=C[C@]3(C)[C@@H]12 | 1.12
O=c1[nH]c2ccccc2n1CCCN1CCC(n2c(=O)[nH]c3cc(Cl)ccc32)CC1 [Domperidone] | 0.956
